We go through 33 targets from the supplement of paper PMC10849652.

Chains of the proteins cited; added tags and fusions are not shown. Lines headed by an entry give the natural chain unless they say otherwise; changes in a name come on top.
UniProt O43175: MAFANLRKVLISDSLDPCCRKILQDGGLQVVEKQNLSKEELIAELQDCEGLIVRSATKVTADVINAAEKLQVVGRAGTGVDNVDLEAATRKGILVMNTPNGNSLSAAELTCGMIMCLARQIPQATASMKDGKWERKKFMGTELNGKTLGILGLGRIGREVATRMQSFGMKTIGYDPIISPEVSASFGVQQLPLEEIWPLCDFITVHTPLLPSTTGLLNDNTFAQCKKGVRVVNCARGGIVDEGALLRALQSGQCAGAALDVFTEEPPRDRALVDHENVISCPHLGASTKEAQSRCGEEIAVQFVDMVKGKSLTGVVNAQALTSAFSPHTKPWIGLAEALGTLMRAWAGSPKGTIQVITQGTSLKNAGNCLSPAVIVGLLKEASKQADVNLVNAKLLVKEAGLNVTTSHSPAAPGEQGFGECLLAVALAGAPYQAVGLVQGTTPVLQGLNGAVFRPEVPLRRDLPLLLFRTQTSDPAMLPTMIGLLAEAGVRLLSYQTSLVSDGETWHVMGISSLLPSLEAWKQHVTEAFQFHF
UniProt Q96HS1, whole entry, looked up: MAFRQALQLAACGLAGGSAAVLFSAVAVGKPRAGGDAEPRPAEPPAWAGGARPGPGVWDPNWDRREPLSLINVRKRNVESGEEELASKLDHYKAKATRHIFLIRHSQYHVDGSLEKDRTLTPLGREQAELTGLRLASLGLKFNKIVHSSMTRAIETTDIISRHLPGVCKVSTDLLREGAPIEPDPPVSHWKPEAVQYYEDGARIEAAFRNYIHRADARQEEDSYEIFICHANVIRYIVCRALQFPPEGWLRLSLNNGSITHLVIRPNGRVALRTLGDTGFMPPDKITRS
UniProt Q13492: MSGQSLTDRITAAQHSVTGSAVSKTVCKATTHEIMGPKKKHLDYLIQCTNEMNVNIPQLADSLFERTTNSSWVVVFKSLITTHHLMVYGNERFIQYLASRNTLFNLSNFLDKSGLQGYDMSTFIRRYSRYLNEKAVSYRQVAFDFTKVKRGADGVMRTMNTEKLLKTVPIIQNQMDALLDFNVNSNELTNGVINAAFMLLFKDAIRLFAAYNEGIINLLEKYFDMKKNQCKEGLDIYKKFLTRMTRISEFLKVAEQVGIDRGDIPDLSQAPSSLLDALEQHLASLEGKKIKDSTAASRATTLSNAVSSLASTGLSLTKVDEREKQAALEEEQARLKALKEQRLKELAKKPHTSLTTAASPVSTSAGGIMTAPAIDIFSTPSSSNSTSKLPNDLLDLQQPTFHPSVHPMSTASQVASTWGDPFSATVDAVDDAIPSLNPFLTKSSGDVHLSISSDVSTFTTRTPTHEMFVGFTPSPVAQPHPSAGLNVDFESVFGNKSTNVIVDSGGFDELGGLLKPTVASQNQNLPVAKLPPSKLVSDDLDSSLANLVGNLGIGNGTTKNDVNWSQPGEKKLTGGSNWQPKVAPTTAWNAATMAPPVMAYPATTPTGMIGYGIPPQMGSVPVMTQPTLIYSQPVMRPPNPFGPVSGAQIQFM
UniProt Q8IV08: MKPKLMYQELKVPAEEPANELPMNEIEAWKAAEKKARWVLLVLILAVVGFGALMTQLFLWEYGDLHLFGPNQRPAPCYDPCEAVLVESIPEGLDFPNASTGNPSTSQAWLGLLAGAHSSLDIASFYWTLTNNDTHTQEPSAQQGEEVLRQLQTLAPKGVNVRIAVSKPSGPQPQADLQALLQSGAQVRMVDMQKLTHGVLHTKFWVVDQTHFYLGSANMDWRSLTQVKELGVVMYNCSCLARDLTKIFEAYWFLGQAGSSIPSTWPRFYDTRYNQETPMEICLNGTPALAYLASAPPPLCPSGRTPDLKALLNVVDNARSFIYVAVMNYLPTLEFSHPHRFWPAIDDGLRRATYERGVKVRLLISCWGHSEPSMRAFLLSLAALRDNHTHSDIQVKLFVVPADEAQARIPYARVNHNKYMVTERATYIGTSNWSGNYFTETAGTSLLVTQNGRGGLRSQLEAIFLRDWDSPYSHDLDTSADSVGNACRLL
UniProt P30613: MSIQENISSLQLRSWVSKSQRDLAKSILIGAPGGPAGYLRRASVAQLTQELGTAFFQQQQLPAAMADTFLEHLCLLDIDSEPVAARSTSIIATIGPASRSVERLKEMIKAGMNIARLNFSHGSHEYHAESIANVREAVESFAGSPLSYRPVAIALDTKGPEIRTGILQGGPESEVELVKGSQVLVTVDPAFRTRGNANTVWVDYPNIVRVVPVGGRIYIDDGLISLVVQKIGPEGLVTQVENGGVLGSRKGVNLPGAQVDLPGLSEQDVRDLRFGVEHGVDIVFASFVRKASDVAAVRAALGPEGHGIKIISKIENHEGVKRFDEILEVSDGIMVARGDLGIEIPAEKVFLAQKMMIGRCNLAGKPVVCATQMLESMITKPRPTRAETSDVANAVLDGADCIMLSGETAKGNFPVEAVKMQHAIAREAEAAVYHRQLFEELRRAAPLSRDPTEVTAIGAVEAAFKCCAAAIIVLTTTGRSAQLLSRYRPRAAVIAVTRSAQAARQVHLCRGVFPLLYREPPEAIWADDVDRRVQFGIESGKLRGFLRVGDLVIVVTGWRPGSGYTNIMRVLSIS
UniProt Q86T03: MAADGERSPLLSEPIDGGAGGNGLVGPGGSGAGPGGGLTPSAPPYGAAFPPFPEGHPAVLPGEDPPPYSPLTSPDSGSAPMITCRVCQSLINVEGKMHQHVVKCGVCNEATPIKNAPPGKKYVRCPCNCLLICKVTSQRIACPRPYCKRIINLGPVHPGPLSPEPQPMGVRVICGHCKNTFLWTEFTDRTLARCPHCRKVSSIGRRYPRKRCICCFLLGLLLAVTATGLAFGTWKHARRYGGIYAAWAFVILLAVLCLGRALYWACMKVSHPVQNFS
UniProt O00625: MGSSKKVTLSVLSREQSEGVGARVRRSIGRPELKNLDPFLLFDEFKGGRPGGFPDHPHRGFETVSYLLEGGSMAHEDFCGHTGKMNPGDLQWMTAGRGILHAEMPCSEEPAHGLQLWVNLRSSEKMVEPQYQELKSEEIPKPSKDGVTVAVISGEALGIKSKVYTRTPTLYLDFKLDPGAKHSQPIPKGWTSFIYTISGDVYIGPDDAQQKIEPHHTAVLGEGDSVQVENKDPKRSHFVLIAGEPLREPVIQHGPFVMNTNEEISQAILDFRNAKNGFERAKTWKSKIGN
UniProt Q9Y2I7: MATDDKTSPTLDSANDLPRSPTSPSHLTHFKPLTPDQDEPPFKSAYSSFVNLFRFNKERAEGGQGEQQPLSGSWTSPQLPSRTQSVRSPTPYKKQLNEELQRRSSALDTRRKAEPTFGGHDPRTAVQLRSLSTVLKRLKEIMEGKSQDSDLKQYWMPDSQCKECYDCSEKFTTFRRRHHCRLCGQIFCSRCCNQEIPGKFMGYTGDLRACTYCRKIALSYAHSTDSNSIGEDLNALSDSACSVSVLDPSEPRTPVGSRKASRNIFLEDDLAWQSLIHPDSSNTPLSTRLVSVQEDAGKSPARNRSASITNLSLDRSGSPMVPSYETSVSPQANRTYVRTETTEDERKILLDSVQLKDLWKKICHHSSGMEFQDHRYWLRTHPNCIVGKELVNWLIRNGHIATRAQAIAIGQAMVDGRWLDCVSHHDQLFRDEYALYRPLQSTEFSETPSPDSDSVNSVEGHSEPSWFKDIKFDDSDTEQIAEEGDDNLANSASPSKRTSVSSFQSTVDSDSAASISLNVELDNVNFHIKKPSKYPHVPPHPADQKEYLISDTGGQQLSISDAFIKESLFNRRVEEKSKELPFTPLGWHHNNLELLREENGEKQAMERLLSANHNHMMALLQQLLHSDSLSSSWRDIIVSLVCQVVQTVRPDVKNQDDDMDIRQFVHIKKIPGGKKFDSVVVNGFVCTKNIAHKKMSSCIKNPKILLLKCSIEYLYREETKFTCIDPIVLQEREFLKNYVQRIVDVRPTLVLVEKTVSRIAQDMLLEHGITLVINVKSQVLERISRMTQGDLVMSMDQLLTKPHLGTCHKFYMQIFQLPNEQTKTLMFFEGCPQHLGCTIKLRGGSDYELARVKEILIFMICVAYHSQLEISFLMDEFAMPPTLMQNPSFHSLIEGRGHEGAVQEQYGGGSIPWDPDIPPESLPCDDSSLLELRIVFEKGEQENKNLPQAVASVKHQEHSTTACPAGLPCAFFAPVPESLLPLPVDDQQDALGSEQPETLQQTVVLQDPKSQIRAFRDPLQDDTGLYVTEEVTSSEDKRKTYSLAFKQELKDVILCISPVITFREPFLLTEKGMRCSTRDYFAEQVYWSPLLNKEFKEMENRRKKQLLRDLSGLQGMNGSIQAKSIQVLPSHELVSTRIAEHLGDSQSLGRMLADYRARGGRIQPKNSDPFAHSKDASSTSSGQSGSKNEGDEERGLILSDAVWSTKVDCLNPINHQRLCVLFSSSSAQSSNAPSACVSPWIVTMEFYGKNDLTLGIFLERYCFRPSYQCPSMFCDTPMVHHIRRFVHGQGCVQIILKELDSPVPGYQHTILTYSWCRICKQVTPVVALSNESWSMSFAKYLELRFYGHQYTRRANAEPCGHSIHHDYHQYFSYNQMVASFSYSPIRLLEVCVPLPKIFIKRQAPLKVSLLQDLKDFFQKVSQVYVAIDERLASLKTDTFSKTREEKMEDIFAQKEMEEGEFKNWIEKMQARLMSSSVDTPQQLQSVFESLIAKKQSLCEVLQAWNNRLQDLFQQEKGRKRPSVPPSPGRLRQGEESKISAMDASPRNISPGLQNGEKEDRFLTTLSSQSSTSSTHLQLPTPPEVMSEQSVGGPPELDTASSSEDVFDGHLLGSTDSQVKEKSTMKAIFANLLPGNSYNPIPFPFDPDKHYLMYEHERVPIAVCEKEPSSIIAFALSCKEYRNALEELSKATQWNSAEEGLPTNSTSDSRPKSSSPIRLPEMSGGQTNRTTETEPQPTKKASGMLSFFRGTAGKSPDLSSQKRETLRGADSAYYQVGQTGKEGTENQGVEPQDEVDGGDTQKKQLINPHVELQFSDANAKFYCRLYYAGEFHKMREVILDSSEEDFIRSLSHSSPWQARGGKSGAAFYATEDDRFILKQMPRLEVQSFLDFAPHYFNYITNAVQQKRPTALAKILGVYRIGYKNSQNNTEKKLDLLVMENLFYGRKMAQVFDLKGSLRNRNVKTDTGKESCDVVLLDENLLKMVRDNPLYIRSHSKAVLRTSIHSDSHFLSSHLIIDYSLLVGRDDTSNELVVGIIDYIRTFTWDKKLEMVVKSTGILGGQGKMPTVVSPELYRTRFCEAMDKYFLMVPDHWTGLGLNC
UniProt Q8NCC3: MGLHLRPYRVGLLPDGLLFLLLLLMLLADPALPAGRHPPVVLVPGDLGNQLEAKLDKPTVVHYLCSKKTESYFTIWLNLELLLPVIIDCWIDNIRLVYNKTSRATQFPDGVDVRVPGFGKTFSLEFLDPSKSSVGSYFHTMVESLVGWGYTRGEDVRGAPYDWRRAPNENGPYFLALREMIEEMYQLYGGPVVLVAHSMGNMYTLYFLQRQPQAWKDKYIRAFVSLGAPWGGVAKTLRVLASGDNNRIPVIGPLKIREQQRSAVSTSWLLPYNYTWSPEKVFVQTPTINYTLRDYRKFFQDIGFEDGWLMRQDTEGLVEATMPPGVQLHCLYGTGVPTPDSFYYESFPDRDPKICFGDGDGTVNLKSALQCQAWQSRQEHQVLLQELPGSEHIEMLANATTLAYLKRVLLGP
UniProt Q9Y5Y5: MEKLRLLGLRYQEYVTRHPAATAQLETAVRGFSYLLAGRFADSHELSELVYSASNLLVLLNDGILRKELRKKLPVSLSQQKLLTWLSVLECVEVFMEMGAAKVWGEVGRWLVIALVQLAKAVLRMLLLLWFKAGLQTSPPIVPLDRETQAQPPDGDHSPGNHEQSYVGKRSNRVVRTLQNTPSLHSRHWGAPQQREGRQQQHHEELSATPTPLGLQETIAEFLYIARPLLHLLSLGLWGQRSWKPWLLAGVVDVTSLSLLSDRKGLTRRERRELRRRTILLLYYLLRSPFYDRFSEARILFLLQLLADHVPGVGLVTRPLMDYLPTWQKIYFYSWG
UniProt O15212, whole entry, looked up: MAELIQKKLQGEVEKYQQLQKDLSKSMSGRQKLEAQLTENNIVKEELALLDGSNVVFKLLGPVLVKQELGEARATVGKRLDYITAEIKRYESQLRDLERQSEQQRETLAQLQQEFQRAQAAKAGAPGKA
UniProt Q96BK5: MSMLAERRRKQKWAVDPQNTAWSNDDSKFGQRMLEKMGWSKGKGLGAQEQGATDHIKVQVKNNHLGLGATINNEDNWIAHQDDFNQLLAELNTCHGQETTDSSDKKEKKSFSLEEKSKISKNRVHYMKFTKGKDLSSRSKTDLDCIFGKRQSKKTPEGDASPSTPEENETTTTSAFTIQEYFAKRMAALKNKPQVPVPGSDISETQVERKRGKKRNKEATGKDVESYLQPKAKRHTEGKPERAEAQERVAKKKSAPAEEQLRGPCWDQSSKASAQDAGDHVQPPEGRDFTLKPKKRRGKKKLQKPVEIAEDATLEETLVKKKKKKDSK

This is one part of the list.

Compound in the first test: CC1=C(C=C(C=C1)NC(=O)C2=CC(=CC=C2)N(C)C)NC(=O)C3=CC=C(C=C3)O
The test can be described thus: log2 fold change, soluble protein after heating vs DMSO (PISA); higher = thermal stabilisation; K562 cells, 10 uM, 30 min; active = over 0.2 and 3.5 SD of the protein, either way, in both replicates (recomputed). The method, boiled down:
(§1)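 Soluble protein was quantified by TMTpro 16plex LC-MS/MS after channel sums were equalised. It was obtained as the supernatant after 21,000xg for 90 min from pooled aliquots of K562 cells (2×10^6 cells/mL, 10 μM compound, 30 min) heated for 3 min across 48°C-58°C and extracted in PBS with 0.5% NP-40 at 4°C. Thermal stability values are relative to control samples and come from duplicates. They are given as log2 fold changes.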
As for PGK1 (UniProt P00558), the log2 fold change is inactive: -0.004.

PHGDH (UniProt O43175): the log2 fold change was inactive: 0.

As to PKN2 (UniProt Q16513), the log2 fold change was inactive: -0.005.

Take PGLS (UniProt O95336): the log2 fold change is inactive: -0.099.

As to PGAM5 (UniProt Q96HS1), the log2 fold change is inactive: 0.001.

With PICALM (UniProt Q13492), the log2 fold change is inactive: 0.012.

Take PHACTR4 isoform 2 (UniProt Q8IZ21): the log2 fold change was inactive: 0.012.

With PHAX (UniProt Q9H814), the log2 fold change was inactive: 0.013.

As for PI4KA (UniProt P42356), the log2 fold change is inactive: -0.052.

With PGRMC1 (UniProt O00264), the log2 fold change was inactive: -0.018.

Consider PLD3 (UniProt Q8IV08), for which the log2 fold change is inactive: 0.012.

Regarding PKLR (UniProt P30613), the log2 fold change was inactive: -0.012.

As for PIP4P1 isoform 2 (UniProt Q86T03), the log2 fold change is inactive: -0.001.

Turning to PIK3R4 (UniProt Q99570), the log2 fold change was inactive: 0.027.

With PI4K2A (UniProt Q9BTU6), the log2 fold change is inactive: -0.02.

For the target PFKP (UniProt Q01813), the log2 fold change was inactive: 0.013.

Regarding PIR (UniProt O00625), the log2 fold change was active: 0.325.

With PIKFYVE (UniProt Q9Y2I7), the log2 fold change was inactive: -0.02.

For PITHD1 (UniProt Q9GZP4), the log2 fold change is inactive: 0.034.

With PGGT1B (UniProt P53609), the log2 fold change was inactive: 0.006.

As to PLA2G15 (UniProt Q8NCC3), the log2 fold change is inactive: -0.013.

With PEX6 (UniProt Q13608), the log2 fold change was inactive: -0.015.

As to PIK3CB (UniProt P42338), the log2 fold change was inactive: -0.009.

PHB (UniProt P35232): the log2 fold change was inactive: -0.02.

Regarding PEX16 isoform 2 (UniProt Q9Y5Y5), the log2 fold change is inactive: 0.038.

PITPNB isoform 3 (UniProt P48739): the log2 fold change was inactive: -0.011.

With PFDN6 (UniProt O15212), the log2 fold change was inactive: 0.012.

With PINX1 (UniProt Q96BK5), the log2 fold change was inactive: 0.05.

PGPEP1 (UniProt Q9NXJ5): the log2 fold change is inactive: -0.132.

In the case of PLCB3 (UniProt Q01970), the log2 fold change was inactive: -0.04.

With PJA2 (UniProt O43164), the log2 fold change was inactive: 0.019.

Regarding PIH1D1 (UniProt Q9NWS0), the log2 fold change was inactive: -0.002.

On to PFKFB4 (UniProt Q16877), for which the log2 fold change is inactive: 0.049.

Compound in a further test: CC1=CC=C(C=C1)SC2=C3C=C(SC3=CN=C2)C(=O)N
The description is as above. The method, boiled down:
as §1
In the case of PGK1 (UniProt P00558), the log2 fold change was inactive: -0.016.

PHGDH (UniProt O43175): the log2 fold change is inactive: 0.022.

PKN2 (UniProt Q16513): the log2 fold change is inactive: 0.018.

In the case of PGLS (UniProt O95336), the log2 fold change is inactive: 0.059.

Regarding PGAM5 (UniProt Q96HS1), the log2 fold change is inactive: -0.009.

For PICALM (UniProt Q13492), the log2 fold change was inactive: -0.02.

Regarding PHACTR4 isoform 2 (UniProt Q8IZ21), the log2 fold change was inactive: -0.01.

Regarding PHAX (UniProt Q9H814), the log2 fold change is inactive: 0.022.

For the target PI4KA (UniProt P42356), the log2 fold change is inactive: -0.023.

Regarding PGRMC1 (UniProt O00264), the log2 fold change was inactive: -0.011.

Turning to PLD3 (UniProt Q8IV08), the log2 fold change was inactive: 0.034.

For PKLR (UniProt P30613), the log2 fold change is inactive: 0.027.

Consider PIP4P1 isoform 2 (UniProt Q86T03), for which the log2 fold change is inactive: -0.019.

On to PIK3R4 (UniProt Q99570), for which the log2 fold change is inactive: 0.013.

On to PI4K2A (UniProt Q9BTU6), for which the log2 fold change was inactive: 0.004.

For the target PFKP (UniProt Q01813), the log2 fold change is inactive: 0.007.

For the target PIR (UniProt O00625), the log2 fold change was inactive: 0.002.

Take PIKFYVE (UniProt Q9Y2I7): the log2 fold change was inactive: 0.005.

On to PITHD1 (UniProt Q9GZP4), for which the log2 fold change is inactive: 0.023.

As to PGGT1B (UniProt P53609), the log2 fold change is inactive: 0.002.

For the target PLA2G15 (UniProt Q8NCC3), the log2 fold change was inactive: 0.005.

With PEX6 (UniProt Q13608), the log2 fold change is inactive: -0.021.

As for PIK3CB (UniProt P42338), the log2 fold change was inactive: 0.024.

As for PHB (UniProt P35232), the log2 fold change is inactive: -0.012.

As for PEX16 isoform 2 (UniProt Q9Y5Y5), the log2 fold change was inactive: 0.083.

On to PITPNB isoform 3 (UniProt P48739), for which the log2 fold change was inactive: -0.026.

On to PFDN6 (UniProt O15212), for which the log2 fold change is inactive: 0.043.

As to PINX1 (UniProt Q96BK5), the log2 fold change is inactive: -0.119.

On to PGPEP1 (UniProt Q9NXJ5), for which the log2 fold change is inactive: 0.087.

Consider PLCB3 (UniProt Q01970), for which the log2 fold change was inactive: 0.021.

For the target PJA2 (UniProt O43164), the log2 fold change was inactive: -0.008.

For PIH1D1 (UniProt Q9NWS0), the log2 fold change was inactive: 0.001.

Regarding PFKFB4 (UniProt Q16877), the log2 fold change is inactive: -0.02.

Compound in the next test: CC1=NC(=CC=C1)C2=C(N=C(N2)C(C)(C)C)C3=CC4=NC=CN=C4C=C3
The description is as above. The procedure, abridged:
as §1
With PGK1 (UniProt P00558), the log2 fold change is inactive: 0.027.

For the target PHGDH (UniProt O43175), the log2 fold change was inactive: 0.021.

On to PKN2 (UniProt Q16513), for which the log2 fold change is inactive: -0.012.

Consider PGLS (UniProt O95336), for which the log2 fold change is inactive: -0.024.

For PGAM5 (UniProt Q96HS1), the log2 fold change was inactive: -0.05.

Consider PICALM (UniProt Q13492), for which the log2 fold change is inactive: 0.035.

Turning to PHACTR4 isoform 2 (UniProt Q8IZ21), the log2 fold change is inactive: 0.016.

In the case of PHAX (UniProt Q9H814), the log2 fold change was inactive: -0.043.

Turning to PI4KA (UniProt P42356), the log2 fold change is inactive: -0.047.

Turning to PGRMC1 (UniProt O00264), the log2 fold change is inactive: 0.023.

PLD3 (UniProt Q8IV08): the log2 fold change was inactive: 0.018.

Consider PKLR (UniProt P30613), for which the log2 fold change was inactive: 0.006.

Take PIP4P1 isoform 2 (UniProt Q86T03): the log2 fold change is inactive: 0.039.

Take PIK3R4 (UniProt Q99570): the log2 fold change is inactive: -0.02.

PI4K2A (UniProt Q9BTU6): the log2 fold change is inactive: 0.023.

As to PFKP (UniProt Q01813), the log2 fold change was inactive: -0.003.

Turning to PIR (UniProt O00625), the log2 fold change is inactive: -0.035.

PIKFYVE (UniProt Q9Y2I7): the log2 fold change was inactive: 0.006.

Consider PITHD1 (UniProt Q9GZP4), for which the log2 fold change is inactive: -0.086.

In the case of PGGT1B (UniProt P53609), the log2 fold change is inactive: 0.035.

Regarding PLA2G15 (UniProt Q8NCC3), the log2 fold change is inactive: -0.026.

In the case of PEX6 (UniProt Q13608), the log2 fold change is inactive: 0.015.

As for PIK3CB (UniProt P42338), the log2 fold change is inactive: 0.054.

With PHB (UniProt P35232), the log2 fold change was inactive: 0.012.

Turning to PEX16 isoform 2 (UniProt Q9Y5Y5), the log2 fold change was inactive: 0.146.

PITPNB isoform 3 (UniProt P48739): the log2 fold change was inactive: 0.012.

PFDN6 (UniProt O15212): the log2 fold change is inactive: 0.038.

Take PINX1 (UniProt Q96BK5): the log2 fold change is inactive: -0.267.

As for PGPEP1 (UniProt Q9NXJ5), the log2 fold change was inactive: -0.014.

As to PLCB3 (UniProt Q01970), the log2 fold change is inactive: 0.033.

With PJA2 (UniProt O43164), the log2 fold change was inactive: -0.019.

For PIH1D1 (UniProt Q9NWS0), the log2 fold change was inactive: 0.159.

Turning to PFKFB4 (UniProt Q16877), the log2 fold change is inactive: 0.011.
